# Reference: PubChem BioAssay AID493014 (National Center for Advancing Translational Sciences (NCATS), 2011)
# The list shows a part of the results. Further columns of the screen follow, without active or inactive calls. Most of these compounds were active or inconclusive in the main read-out, so they are no random draw. The note in brackets gives the kind of curve behind each potency; many fits are weak.
# Experiment: qHTS Assay to Find Inhibitors of Chronic Active B-Cell Receptor Signaling
# Details: ABC-DLBCL IkBa-CBG/CBR reporter, luminescence ratio (green luciferase fused to IkBa over red control in TMD8 lymphoma cells), 4 h
# Procedure, shortened: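 Concentration-response series (up to 46 uM) were applied to TMD8 dual-reporter cells for 4 h at 37C with doxycycline. Green/red ratio, after filter-overlap correction, defined %Activity; red signal alone was normalised to basal cells and zero luminescence.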
# [1] = measured here: CBR red luminescence, cell number
# [2] = measured here: IkBa-CBG green luminescence
SMILES,AC50 [1],AC50 [2]
CCCN(CCC)C(=O)COc1cc(=O)n(CC)c2ccccc12,"29.1 µM [rising, single point]",
Cc1cccn2cc(CSc3ccccc3N)nc12,"4.61 µM [falling, partial curve, poor fit]",
Cc1ccc2[nH]c(=O)c(CN(Cc3ccccc3)C(=S)NCCCN(C)C)cc2c1,"0.501 µM [falling, full curve]",
Cc1cccc(C)c1OCCCCn1cnc2ccccc2c1=O,"8.91 µM [falling, single point]",
O=C(NCCCN1CCOCC1)c1sc2ccccc2c1Cl,"8.91 µM [rising, partial curve, poor fit]",
N#C/C(=C/c1ccc2c(c1)OCO2)C(=O)Nc1ccc(O)cc1,"15.8 µM [falling, partial curve, poor fit]",
COc1ccccc1OCCC(=O)OCC(=O)Nc1ccc(S(=O)(=O)N2CCOCC2)cc1,"20 µM [falling, single point]",
CNc1nc(Cl)c(SC)c(N2CCOCC2)n1,"12.6 µM [falling, single point]",
CC(=O)c1cccc(NC(=O)CN2CCN(Cc3ccccc3)CC2)c1,"12.6 µM [rising, partial curve, poor fit]",
O=C(Nc1nc2c(s1)CN(Cc1ccccc1)CC2)C1CCCC1,"3.55 µM [rising, partial curve, poor fit]",
Cc1ccc(S(=O)(=O)NNC(=O)c2snnc2C)cc1,"1.3 µM [falling, full curve, poor fit]",
O=C(Nc1ccc(F)cc1F)N1CCN(c2ncccn2)CC1,"7.31 µM [falling, partial curve]",
CN(C)C(=O)CCc1nc(-c2ccc(C(C)(C)C)cc2)no1,"25.1 µM [falling, single point]",
COc1ccc(Cl)cc1NC(=O)C/C(C)=N/NC(=O)c1ccccc1Cl,"12.6 µM [falling, partial curve]",
C=CCN(c1ccccc1)S(=O)(=O)c1cc(C(=O)NC2=NCCS2)ccc1Cl,"14.1 µM [falling, single point]",
CC(=O)Nc1cccc(C(=O)OC(C(=O)c2ccc(C)cc2)c2ccccc2)c1 (stereo unspecified),"31.6 µM [rising, single point]",
O=C(CNC(=O)c1ccco1)N/N=C/c1ccc(O)c([N+](=O)[O-])c1,"5.17 µM [falling, partial curve, poor fit]",
CN(C)CCCN(C(=O)c1ccc2c(c1)OCCO2)c1nc2cc3c(cc2s1)OCO3,"22.4 µM [falling, single point]",
O=C(c1ccc2[nH]c(=O)c(=O)[nH]c2c1)N1CCc2ccccc21,"3.55 µM [rising, single point]",
COC(=O)c1ccccc1NC(=O)NCCc1ccccc1OC,"10 µM [falling, partial curve]",
O=C(CCN1C(=O)c2ccccc2C1=O)NC(=S)Nc1cccc(Cl)c1,"35.5 µM [falling, single point]",

SMILES,AC50 [1],AC50 [2]
S=C(NCCc1ccccc1)NCc1cccs1,"29.1 µM [falling, single point]",
CN1CCN(c2ccc(NC(=O)c3ccc(-c4ccc(Br)cc4)o3)cc2)CC1,"22.4 µM [falling, single point]",
COC(=O)N1C(=O)[C@](c2ccccc2)(C(C)C)N1C(=O)OC,"12.6 µM [falling, partial curve, poor fit]",
O=C(COC(=O)/C=C/c1ccc(F)cc1)Nc1cc(C(F)(F)F)ccc1N1CCOCC1,"3.26 µM [rising, full curve, poor fit]",
CC(=O)Nc1ccc(/C=C/c2ccc3cccc([N+](=O)[O-])c3n2)cc1,"5.01 µM [rising, full curve, poor fit]",
CCC(=O)NC(c1ccc(C)cc1)c1ccc2cccnc2c1O (stereo unspecified),"7.08 µM [falling, partial curve]",
Cc1ccc(C(=O)NC(NCc2ccccc2)C(Cl)(Cl)Cl)cc1 (stereo unspecified),"7.31 µM [rising, partial curve, poor fit]",
CCCCOc1ccc(S(=O)(=O)N2CCN(c3ccc(N4CCN(CC)CC4)nn3)CC2)cc1,"18.4 µM [rising, partial curve, poor fit]",
Cc1cc(/C(N)=N/OC(=O)c2ccccc2Cl)no1,"35.5 µM [falling, single point]",
CSc1cccc(NC(=S)N(Cc2ccc(C)cc2)Cc2cccnc2)c1,"11.2 µM [rising, partial curve, poor fit]",
COc1cc(OC)cc(C(=O)NC(C(=O)NNC(=O)c2ccc(C)cc2)C(C)C)c1 (stereo unspecified),"23.1 µM [rising, single point]",
Cc1ccc(S(=O)(=O)N(C)CCCC(=O)NCc2ccc3c(c2)OCO3)cc1,"16.4 µM [falling, partial curve, poor fit]",
C#Cc1ccc([C@H]2C=C(C(=O)O)O[C@@H](OCc3ccc(CO)cc3)C2)cc1,"2.51 µM [rising, partial curve, poor fit]",
Cc1cc(N)nc2nc(C(F)(F)F)nn12,"1.58 µM [falling, full curve, poor fit]",
Cc1nn2c(-c3ccc(Cl)cc3)ccnc2c1-c1ccccc1,"6.51 µM [falling, single point]",
Cc1ccccc1C(=O)Nc1ccc(Br)c(C)n1,"9.2 µM [falling, partial curve]",
CCN(CC)S(=O)(=O)c1ccc2c(c1)N(CC(=O)NCCCN1CCN(c3ccc(OC)cc3)CC1)C(=O)CO2,"35.5 µM [rising, single point]",
Oc1oc(-c2ccccc2)nc1C=Nc1cccc2ccccc12,"29.1 µM [falling, single point]",
CCCCCn1c(=O)[nH]c2cc(C(=O)NCCN(CC)CC)ccc2c1=O,"35.5 µM [falling, single point]",
O=C(c1ccco1)N1CCN(c2nc(C3CC3)nc3sc4c(c23)CCCC4)CC1,"15.8 µM [falling, partial curve, poor fit]","17.8 µM [rising, partial curve, poor fit]"
O=C(CSc1nc2ccccc2s1)Nc1cc(S(=O)(=O)N2CCOCC2)ccc1Cl,"0.92 µM [rising, full curve, poor fit]",

SMILES,AC50 [1],AC50 [2]
O=C1N/C(=N\N=C\c2cccs2)SC1Cc1ccc(Cl)c(Cl)c1 (stereo unspecified),"4.47 µM [falling, partial curve]",
COc1ccc(N=c2oc3c(OC)cccc3cc2C(=O)NCc2ccco2)c(OC)c1,"7.08 µM [falling, full curve]",
Cc1ccc(C(=O)N[C@H](C(=O)Nc2ccc(F)cc2)C(C)C)cc1,"10 µM [falling, partial curve]",
CC(C)CCNC(=O)NC(=O)COc1ccccc1C#N,"29.1 µM [falling, single point]",
CCn1cnc2c(Nc3cc(F)cc(F)c3)nc(C#N)nc21,"4.11 µM [rising, full curve, poor fit]",
CSc1nc2ccccc2s1,"6.51 µM [rising, single point]",
Cc1ccc(NC(C#N)c2ccccc2OCc2ccccc2)cc1 (stereo unspecified),,"25.1 µM [falling, single point]"
CCOC(=O)N1CCN(C(=O)c2c(O)c3cccc4c3n(c2=O)CC4)CC1,"1.84 µM [falling, partial curve, poor fit]",
Cc1ccc(NC(=O)Cc2ccccc2)c(C)c1,"11.2 µM [rising, partial curve, poor fit]",
CS(=O)(=O)NCCCNc1ccc(Cl)cc1[N+](=O)[O-],"3.26 µM [rising, full curve, poor fit]",
O=C(O)c1ccc(-c2ccccn2)s1,"11.2 µM [falling, partial curve]",
N/C(=N\OC(=O)c1ccccc1Cl)c1cccnc1,"1.46 µM [rising, partial curve, poor fit]",
O=C(O)c1cccc2c(/C=N/Nc3ccccn3)c[nH]c12,"1 µM [falling, full curve]",
Cc1noc(C)c1COc1cccc(C(=O)OCC(=O)N2CC(=O)Nc3ccccc32)c1,"31.6 µM [rising, single point]","12.6 µM [falling, partial curve]"
COC(=O)C1OC(OC2CC[C@]3(C)C(CC[C@@]4(C)[C@@H]3CC=C3[C@@H]5CC(C)(C)CC[C@]5(C(=O)OC5OC(CO)C(O)C(O)C5O)CC[C@]34C)C2(C)C)C(O)C(O)C1O[C@H]1OCC(O)C(O)C1O (stereo partly specified),"29.1 µM [falling, single point]",
CCCCCn1c(=O)[nH]c2cc(C(=O)N3CCN(CC)CC3)ccc2c1=O,"20.6 µM [rising, partial curve, poor fit]",
Oc1ccc(N=Nc2ccc(Br)cc2)c(O)c1,"0.562 µM [rising, partial curve, poor fit]","35.5 µM [falling, single point]"
Cc1[nH]c2ccccc2c1N=Nc1ccccc1F,"0.158 µM [rising, full curve, poor fit]",
CC(=O)Nc1ccc(NC(=O)C(C)OC(=O)c2c(C)nn(-c3ccccc3)c2Cl)cc1 (stereo unspecified),"0.116 µM [rising, full curve, poor fit]",
CCC/C(=N\NC(=O)Cc1csc(N2CCOCC2)n1)c1ccccc1,"5.62 µM [falling, partial curve, poor fit]",
CSc1ccc2c(c1)N(CCC1CCCCN1C)c1ccccc1S2 (stereo unspecified),"2.06 µM [falling, partial curve]",

# Complete entries, looked up by structure.
# Cc1noc(C)c1COc1cccc(C(=O)OCC(=O)N2CC(=O)Nc3ccccc32)c1 is entered as AC50 [1]: 31.6 µM [rising, single point]; AC50 [2]: 12.6 µM [falling, partial curve]
# O=C(O)c1ccc(-c2ccccn2)s1 is entered as AC50 [1]: 11.2 µM [falling, partial curve]
# COc1ccc(N=c2oc3c(OC)cccc3cc2C(=O)NCc2ccco2)c(OC)c1 is entered as AC50 [1]: 7.08 µM [falling, full curve]
# N/C(=N\OC(=O)c1ccccc1Cl)c1cccnc1 is entered as AC50 [1]: 1.46 µM [rising, partial curve, poor fit]
